From paper PMC10360236
Results are given in words; binding and its absence hold for the method and conditions named. Binding seen in cells or lysates may run through a third protein. Some entries that bind do so weakly or less than the wild type. Where a sequence is shown, tags or fusion partners need not be part of it.

The chains behind the UniProt entries cited, without tags or fusion partners.
UniProt P55128: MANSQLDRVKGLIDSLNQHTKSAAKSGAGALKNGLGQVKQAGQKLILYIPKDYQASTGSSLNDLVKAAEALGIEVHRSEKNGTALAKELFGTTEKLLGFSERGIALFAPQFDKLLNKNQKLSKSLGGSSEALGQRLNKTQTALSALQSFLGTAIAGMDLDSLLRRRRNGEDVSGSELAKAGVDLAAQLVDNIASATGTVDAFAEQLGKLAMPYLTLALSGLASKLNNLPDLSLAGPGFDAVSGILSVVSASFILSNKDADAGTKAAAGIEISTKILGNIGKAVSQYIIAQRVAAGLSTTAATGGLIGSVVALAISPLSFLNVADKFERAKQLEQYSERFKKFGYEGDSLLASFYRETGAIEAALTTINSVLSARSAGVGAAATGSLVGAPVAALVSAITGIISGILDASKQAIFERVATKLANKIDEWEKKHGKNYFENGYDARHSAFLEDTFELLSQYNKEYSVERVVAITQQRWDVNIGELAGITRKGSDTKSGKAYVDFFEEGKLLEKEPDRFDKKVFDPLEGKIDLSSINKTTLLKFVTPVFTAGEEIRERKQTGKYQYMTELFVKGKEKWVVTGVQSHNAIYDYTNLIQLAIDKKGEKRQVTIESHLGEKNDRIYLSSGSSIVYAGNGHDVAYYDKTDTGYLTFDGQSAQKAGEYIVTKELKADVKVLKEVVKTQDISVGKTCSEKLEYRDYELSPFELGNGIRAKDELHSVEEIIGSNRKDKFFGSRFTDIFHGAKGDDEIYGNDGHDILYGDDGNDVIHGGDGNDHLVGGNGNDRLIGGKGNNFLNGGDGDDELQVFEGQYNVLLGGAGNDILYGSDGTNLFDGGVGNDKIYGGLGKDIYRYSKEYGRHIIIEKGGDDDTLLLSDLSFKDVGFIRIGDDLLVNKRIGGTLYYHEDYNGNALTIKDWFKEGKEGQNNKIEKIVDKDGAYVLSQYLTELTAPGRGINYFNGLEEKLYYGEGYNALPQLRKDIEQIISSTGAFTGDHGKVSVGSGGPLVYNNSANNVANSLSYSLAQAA

T1: Flag-CAV1 recombinant protein (porcine caveolin-1) (porcine) (UniProt Q6RVA9)
T1 sequence: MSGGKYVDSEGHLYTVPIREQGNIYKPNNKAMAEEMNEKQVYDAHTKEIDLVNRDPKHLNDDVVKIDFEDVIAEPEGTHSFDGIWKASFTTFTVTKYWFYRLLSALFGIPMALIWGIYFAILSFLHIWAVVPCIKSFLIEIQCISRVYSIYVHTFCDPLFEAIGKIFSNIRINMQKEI


Tests used:
[1] = target: T1, Flag-CAV1 recombinant protein (porcine caveolin-1) (porcine); test: co-IP; lysate of HEK 293 T cells transfected with Flag-CAV1 (1-2 mg total protein) incubated with 2.5 ug purified HA-ApxIA for 4 h at 4 °C; precipitated with anti-Flag mAb and protein A/G beads; western blot; only the binder purified
[2] = target: HA-His-ApxIA fusion protein (Actinobacillus pleuropneumoniae serotype 1) (UniProt P55128); test: co-IP; lysate of HEK 293 T cells transfected with Flag-CAV1 (1-2 mg total protein) incubated with 2.5 ug purified HA-ApxIA for 4 h at 4 °C; precipitated with anti-HA mAb and protein A/G beads; western blot; only the target purified

Row | Molecule | binding [1] | binding [2]
1 | HA-His-ApxIA fusion protein (from UniProt P55128 1-1023) | binds | 
2 | Flag-CAV1 recombinant protein (porcine caveolin-1) (protein, UniProt Q6RVA9 1-178) MSGGKYVDSEGHLYTVPIREQGNIYKPNNKAMAEEMNEKQVYDAHTKEIDLVNRDPKHLNDDVVKIDFEDVIAEPEGTHSFDGIWKASFTTFTVTKYWFYRLLSALFGIPMALIWGIYFAILSFLHIWAVVPCIKSFLIEIQCISRVYSIYVHTFCDPLFEAIGKIFSNIRINMQKEI |  | binds
